# Source: PubChem BioAssay AID1259308 (NCATS, 2017)
# Assay: 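Candidate targets for better recombinant protein yield in mammalian cells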 (primary screen)
# System: human HEK293 embryonic kidney cells stably expressing firefly luciferase (HEK-CMV-Luc2-Hygro)
# Reagent: single siRNA against human genes, 0.8 pmol siRNA per well
# Timing: 72 h
# Detection: 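Luciferase light (ONE-Glo) measured on one replicate plate set and viability (CellTiter-Glo) on the other, scaled to a negative control siRNA, with robust z-scores and luciferase per cell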
# Direction: total luciferase, z-score: higher = more reporter protein produced
# Rule for the call: 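An siRNA counts as active if its total luciferase robust z-score exceeds 3; genes with two or more such siRNAs out of three were retested with fresh siRNAs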
# Meaning of the calls: active = raised luciferase; inactive = no rise
# Here is one part, drawn at random, of about 59,000 reagents tested. In the full data, about 1,510 (2.6%) got an active call. 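Calls use total luciferase alone and ignore viability, so some active siRNAs may act by altering cell number.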 Reagents against one gene are numbered here. Further read-outs or replicates are left out here.
"total luciferase, z-score",Outcome,gene,reagent no.
1.51,inactive,MSRB2 (GeneID 22921),1
-1.09,inactive,MSRB2 (GeneID 22921),2
-0.662,inactive,MSRB2 (GeneID 22921),3
0.989,inactive,WDR93 (GeneID 56964),1
1.55,inactive,WDR93 (GeneID 56964),2
2.6,inactive,WDR93 (GeneID 56964),3
-0.87,inactive,MAGEB5 (GeneID 347541),1
1.38,inactive,MAGEB5 (GeneID 347541),2
0.456,inactive,MAGEB5 (GeneID 347541),3
0.225,inactive,ZNF169 (GeneID 169841),1
-0.645,inactive,ZNF169 (GeneID 169841),2
0.111,inactive,ZNF169 (GeneID 169841),3
0.296,inactive,C12orf57 (GeneID 113246),1
0.157,inactive,C12orf57 (GeneID 113246),2
-1.19,inactive,C12orf57 (GeneID 113246),3
0.0667,inactive,POLRMT (GeneID 5442),1
-0.151,inactive,POLRMT (GeneID 5442),2
0.0687,inactive,POLRMT (GeneID 5442),3
4.56,active,RADIL (GeneID 55698),1
0.204,inactive,RADIL (GeneID 55698),2
0.804,inactive,RADIL (GeneID 55698),3
1.23,inactive,NLK (GeneID 51701),1
1.05,inactive,NLK (GeneID 51701),2
-0.603,inactive,NLK (GeneID 51701),3
0.551,inactive,BOLA1 (GeneID 51027),1
-0.112,inactive,BOLA1 (GeneID 51027),2
0.324,inactive,BOLA1 (GeneID 51027),3
-0.358,inactive,ODAPH (GeneID 152816),1
0.121,inactive,ODAPH (GeneID 152816),2
1.09,inactive,ODAPH (GeneID 152816),3
-0.873,inactive,EZH1 (GeneID 2145),1
0.0946,inactive,EZH1 (GeneID 2145),2
-0.764,inactive,EZH1 (GeneID 2145),3
0.0753,inactive,SPACA4 (GeneID 171169),1
0.631,inactive,SPACA4 (GeneID 171169),2
-0.546,inactive,SPACA4 (GeneID 171169),3
-0.24,inactive,LPIN3 (GeneID 64900),1
2.88,inactive,LPIN3 (GeneID 64900),2
-2.59,inactive,LPIN3 (GeneID 64900),3

In a second layout: entries from further up.
{"gene":"C12orf57 (GeneID 113246)","reagent no.":2,"total luciferase, z-score":0.157,"Outcome":"inactive"}
{"gene":"C12orf57 (GeneID 113246)","reagent no.":3,"total luciferase, z-score":-1.19,"Outcome":"inactive"}
{"gene":"POLRMT (GeneID 5442)","reagent no.":1,"total luciferase, z-score":0.0667,"Outcome":"inactive"}
{"gene":"POLRMT (GeneID 5442)","reagent no.":2,"total luciferase, z-score":-0.151,"Outcome":"inactive"}
{"gene":"POLRMT (GeneID 5442)","reagent no.":3,"total luciferase, z-score":0.0687,"Outcome":"inactive"}
{"gene":"RADIL (GeneID 55698)","reagent no.":1,"total luciferase, z-score":4.56,"Outcome":"active"}
{"gene":"RADIL (GeneID 55698)","reagent no.":2,"total luciferase, z-score":0.204,"Outcome":"inactive"}
{"gene":"RADIL (GeneID 55698)","reagent no.":3,"total luciferase, z-score":0.804,"Outcome":"inactive"}
{"gene":"NLK (GeneID 51701)","reagent no.":1,"total luciferase, z-score":1.23,"Outcome":"inactive"}
{"gene":"NLK (GeneID 51701)","reagent no.":2,"total luciferase, z-score":1.05,"Outcome":"inactive"}
{"gene":"NLK (GeneID 51701)","reagent no.":3,"total luciferase, z-score":-0.603,"Outcome":"inactive"}
{"gene":"BOLA1 (GeneID 51027)","reagent no.":1,"total luciferase, z-score":0.551,"Outcome":"inactive"}

Continued.
"total luciferase, z-score",Outcome,gene,reagent no.
1.13,inactive,ATP2A1 (GeneID 487),1
-0.763,inactive,ATP2A1 (GeneID 487),2
1.93,inactive,ATP2A1 (GeneID 487),3
-0.498,inactive,STXBP2 (GeneID 6813),1
0.305,inactive,STXBP2 (GeneID 6813),2
-0.419,inactive,STXBP2 (GeneID 6813),3
-0.199,inactive,SLFNL1 (GeneID 200172),1
0.505,inactive,SLFNL1 (GeneID 200172),2
1.22,inactive,SLFNL1 (GeneID 200172),3
-0.468,inactive,TP53 (GeneID 7157),1
-0.156,inactive,TP53 (GeneID 7157),2
0.116,inactive,TP53 (GeneID 7157),3
0.759,inactive,TMEM37 (GeneID 140738),1
0.299,inactive,TMEM37 (GeneID 140738),2
-1.39,inactive,TMEM37 (GeneID 140738),3
1.38,inactive,IFNA1 (GeneID 3439),1
-0.595,inactive,IFNA1 (GeneID 3439),2
1.01,inactive,IFNA1 (GeneID 3439),3
0.792,inactive,PNMA6E (GeneID 649238),1
0.855,inactive,PNMA6E (GeneID 649238),2
-0.0954,inactive,PNMA6E (GeneID 649238),3
0.342,inactive,UCP3 (GeneID 7352),1
-0.472,inactive,UCP3 (GeneID 7352),2
0.0205,inactive,UCP3 (GeneID 7352),3
1.19,inactive,ZNF696 (GeneID 79943),1
0.564,inactive,ZNF696 (GeneID 79943),2
1.85,inactive,ZNF696 (GeneID 79943),3
-1.05,inactive,KCNJ11 (GeneID 3767),1
-1.66,inactive,KCNJ11 (GeneID 3767),2
-0.61,inactive,KCNJ11 (GeneID 3767),3
0.105,inactive,ARHGAP20 (GeneID 57569),1
0.422,inactive,ARHGAP20 (GeneID 57569),2
0.795,inactive,ARHGAP20 (GeneID 57569),3
0.863,inactive,SAGE2P (GeneID 644717),1
2.17,inactive,SAGE2P (GeneID 644717),2
-0.0729,inactive,SAGE2P (GeneID 644717),3
